Assays:
MCF-7 cells = assay: Cell viability; type: cell-based; settings: Homo sapiens, MCF7, 72 h, read-out: Anti-proliferative activity IC50, MCF-7
A549 cells = assay: Cell viability; type: cell-based; settings: Homo sapiens, A549, 72 h, read-out: Anti-proliferative activity IC50, A549

- IC50 (MCF-7 cells): 3.27 ± 0.05 µM
- IC50 (A549 cells): 5 ± 0.24 µM
Structure (SMILES): O=C(CCCCCCC(=O)Nc1ccccc1)NO [SAHA, suberoylanilide hydroxamic acid, reference compound]
